Data taken from paper PMC7819943, “Rice protein-binding microarrays: a tool to detect cis-acting elements near promoter regions in rice”.
The other results are listed elsewhere or left out.

Sequences of proteins named here, by UniProt entry; tags and fusion partners are left off.
UniProt Q0JBA9, entry or part of it: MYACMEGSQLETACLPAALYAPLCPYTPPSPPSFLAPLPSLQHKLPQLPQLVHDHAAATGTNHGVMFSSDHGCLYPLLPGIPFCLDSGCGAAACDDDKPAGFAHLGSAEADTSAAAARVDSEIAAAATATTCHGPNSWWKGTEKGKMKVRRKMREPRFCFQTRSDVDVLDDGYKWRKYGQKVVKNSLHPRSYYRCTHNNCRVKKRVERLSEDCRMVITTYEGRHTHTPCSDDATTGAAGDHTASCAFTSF

molecular target: OsWRKY34 (Oryza sativa, UniProt Q0JBA9 1-250); assay: protein-binding microarray (RPBM); PBS, 2% BSA, 51.3 ng/ul salmon testes DNA, 50 uM zinc acetate, 200 nM TF, 25 C, 1 h; high values mean tight binding; conditions: protein: recombinant; tags: N-terminal polyhistidine and DsRed monomer fusion (pET32a); label: CyDye5-dUTP incorporated in the synthesized complementary strand; 3' TTTTT single-stranded linker to array surface; dsDNA, one strand shown
How it was run: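 In PBS with 2% BSA, salmon testes DNA and 50 µM zinc acetate, 200 nM protein was incubated on a custom Agilent array at 25 °C for 1 h and then washed off. The array had been made double-stranded by primer extension with Cy5-dUTP and blocked with 2% BSA. The proteins were transcription factors fused N-terminally to polyhistidine and DsRed, expressed in E. coli BL21-CodonPlus and purified on Ni–NTA. The binding signal is per-feature fluorescence intensity (arbitrary units) from an Axon 4000B scanner.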

Row | Sequence | binding signal
1 | CCGCGACTCCACAGTTCACCGCGACACATGCCGCGCAGGCCGGAGTCACCTAGTGCAG | 9990 fluorescence intensity (a.u.)
2 | TCTAGGTCATGAGAGCGATCGTAAAGGCTTTTTTTCTATTCGGAGTCACCTAGTGCAG | 9230 fluorescence intensity (a.u.)
3 | ACTCATAATATAACTTTGCTATTAATTAGGGGTATTTTGGCGGAGTCACCTAGTGCAG | 8070 fluorescence intensity (a.u.)
4 | TATTTATAGCTAATTTATAGTCCGCTATTGTACCCGCTCTCGGAGTCACCTAGTGCAG | 9140 fluorescence intensity (a.u.)
5 | TTCGTGTGTTTCATATTATTTTAAGGTGTGCTAGTTTTTCCGGAGTCACCTAGTGCAG | 8150 fluorescence intensity (a.u.)
6 | TATCACATGTTTAACCATTCGTCTTATTCAAAAAATTTATCGGAGTCACCTAGTGCAG | 8170 fluorescence intensity (a.u.)
7 | TGGTGAGGAGGAGGAGGAGGAGGAGCGGGGAGAGTGTCGCCGGAGTCACCTAGTGCAG | 8870 fluorescence intensity (a.u.)
8 | GTCTTTTGTTCATTAGCTTCTTCTCTTTTCTGCACATTTTCGGAGTCACCTAGTGCAG | 10900 fluorescence intensity (a.u.)
9 | GTCGATTAGCAAACATGCATTTCATCTGCAGATTCTGACACGGAGTCACCTAGTGCAG | 8250 fluorescence intensity (a.u.)
10 | CGTGTTCAACGTTTGACCGTCTGTCTTATTTAAAAATTTTCGGAGTCACCTAGTGCAG | 8750 fluorescence intensity (a.u.)
11 | ATCTGTTATGTTTGCCCTGTCATTGGTTCTGCTAATCAATCGGAGTCACCTAGTGCAG | 9160 fluorescence intensity (a.u.)
12 | CGTTTTTCGAGTGCACATATTTGTTTTACTTGTTTTGAAACGGAGTCACCTAGTGCAG | 10800 fluorescence intensity (a.u.)
13 | GCATGGGTAACTACTATTCCTCCTCTCGCTAATATATTTCCGGAGTCACCTAGTGCAG | 10200 fluorescence intensity (a.u.)
14 | AGTGGTTAGTTGGGTACATGGAAAAATATAATATATACCACGGAGTCACCTAGTGCAG | 8220 fluorescence intensity (a.u.)
15 | GGTACGTCATCCGTGTTTGAGTGGGTTTTAAAGTTCATTCCGGAGTCACCTAGTGCAG | 12600 fluorescence intensity (a.u.)
16 | GTTTGTATAGCTCCTATTGTACATTTTTGTTTGCATAGCTCGGAGTCACCTAGTGCAG | 11100 fluorescence intensity (a.u.)
17 | AATTTTTCACCCATCACATCAAATGTTTGGATACATACATCGGAGTCACCTAGTGCAG | 9330 fluorescence intensity (a.u.)
18 | CATCGTAATTTGTTTTTCAGCATTTATTTTTAAATTGTTACGGAGTCACCTAGTGCAG | 8220 fluorescence intensity (a.u.)
19 | GGGCCCAGCCCACAGCGCCGCATTTGTTTCGACCGCTTCACGGAGTCACCTAGTGCAG | 9960 fluorescence intensity (a.u.)
20 | TGCTCTGATGGGGTTATGTTCATTTAAGGCTGGATTGGTACGGAGTCACCTAGTGCAG | 8600 fluorescence intensity (a.u.)
21 | GCCTGTCTCTGTGGAGCTGCGGTGCCAATATTACTGCTTCCGGAGTCACCTAGTGCAG | 8650 fluorescence intensity (a.u.)

Row | Sequence | binding signal
22 | ATTTTTTTTTCTCCTTTTTTCCACACCAGTTAGTTTTAGCCGGAGTCACCTAGTGCAG | 8780 fluorescence intensity (a.u.)
23 | TTGTGACTTGACTTTGCCAATCTTAGTCTATTTTCTCGAGCGGAGTCACCTAGTGCAG | 8840 fluorescence intensity (a.u.)
24 | AATGTTTACTGTACCACCACACTGTCAAATCATGGCACAACGGAGTCACCTAGTGCAG | 8220 fluorescence intensity (a.u.)
25 | GCGGCTATCGTGTTGGTCTCTTACTTAGCTATATTTAGATCGGAGTCACCTAGTGCAG | 8590 fluorescence intensity (a.u.)
26 | TTGATTTTGCAACACGATTATGTTGTCTTCTTTTCCCTATCGGAGTCACCTAGTGCAG | 8800 fluorescence intensity (a.u.)
27 | TCGTCCCCGCCGCCACCACATGTGCCGCTCCGTCGTGCTCCGGAGTCACCTAGTGCAG | 8800 fluorescence intensity (a.u.)
28 | TATAGGAGGGAGGGGTCTAATTTAAAATTCTAATCATCATCGGAGTCACCTAGTGCAG | 8960 fluorescence intensity (a.u.)
29 | AGGTGAGAGTGAGTTGGTTTATTTCGTTTTTTCGTGCACGCGGAGTCACCTAGTGCAG | 8400 fluorescence intensity (a.u.)
30 | TGTGGTGGGTTCTAGCTCTAGTTGCAGCAATGTTTCCGAACGGAGTCACCTAGTGCAG | 14300 fluorescence intensity (a.u.)
31 | TTTGCTCTTGACACAATCCCCAACCTAGTTTGTTGGATTTCGGAGTCACCTAGTGCAG | 8510 fluorescence intensity (a.u.)
32 | GAATTTCTCTTGTAGCCATGTTTTTTTTTCTAATTAAGATCGGAGTCACCTAGTGCAG | 8840 fluorescence intensity (a.u.)
33 | CCCAGACACGCGCGTCCCATCGCCCCTATCCATGCCCAATCGGAGTCACCTAGTGCAG | 8420 fluorescence intensity (a.u.)
34 | AGAGCGGTAGTGATTGTGGTTGGGGCGGCAGTTAGTGGTTCGGAGTCACCTAGTGCAG | 13400 fluorescence intensity (a.u.)
35 | TCCTCGGATCCACGCCATCTCTCTTGACCAGCCGAGCGCACGGAGTCACCTAGTGCAG | 12900 fluorescence intensity (a.u.)
36 | TGCGGTGTGTTTTTTTTTTCAAAATGTACTCCCTCCGTTTCGGAGTCACCTAGTGCAG | 9030 fluorescence intensity (a.u.)
37 | TCTAGGCCTTATCAGTTTTGTATAGTTTTATCCCTAGGGGCGGAGTCACCTAGTGCAG | 9060 fluorescence intensity (a.u.)
38 | GATCTTACCTGATTTAACTATTTTTACTCTATATGCTTCGCGGAGTCACCTAGTGCAG | 8890 fluorescence intensity (a.u.)
39 | CTTTGTCTACATTCCCATGGCTGCAGAGCTACGAGGAGGGCGGAGTCACCTAGTGCAG | 9070 fluorescence intensity (a.u.)
40 | TAAGAGCAAAGTCCGTATTTAATTGTTTGGTTGGTAGAATCGGAGTCACCTAGTGCAG | 8040 fluorescence intensity (a.u.)
41 | AAACTACCCTTGTATGCCATGTGTTCTTTATTCTACTGGTCGGAGTCACCTAGTGCAG | 10700 fluorescence intensity (a.u.)
42 | ACCAGTATTTAATTCCTTCTATTTTTGGTACTTCTGCAGGCGGAGTCACCTAGTGCAG | 8130 fluorescence intensity (a.u.)

Single entries from the entries so far.
Entry for TTTGCTCTTGACACAATCCCCAACCTAGTTTGTTGGATTTCGGAGTCACCTAGTGCAG under binding signal: 8510 fluorescence intensity (a.u.)
Entry for GCGGCTATCGTGTTGGTCTCTTACTTAGCTATATTTAGATCGGAGTCACCTAGTGCAG under binding signal: 8590 fluorescence intensity (a.u.)
